Laboratory results: the supplement of paper PMC10849652
The list shows a part of the results.

Chains of the proteins cited; added tags and fusions are not shown. Lines headed by an entry give the natural chain unless they say otherwise; changes in a name come on top.
UniProt Q969X1: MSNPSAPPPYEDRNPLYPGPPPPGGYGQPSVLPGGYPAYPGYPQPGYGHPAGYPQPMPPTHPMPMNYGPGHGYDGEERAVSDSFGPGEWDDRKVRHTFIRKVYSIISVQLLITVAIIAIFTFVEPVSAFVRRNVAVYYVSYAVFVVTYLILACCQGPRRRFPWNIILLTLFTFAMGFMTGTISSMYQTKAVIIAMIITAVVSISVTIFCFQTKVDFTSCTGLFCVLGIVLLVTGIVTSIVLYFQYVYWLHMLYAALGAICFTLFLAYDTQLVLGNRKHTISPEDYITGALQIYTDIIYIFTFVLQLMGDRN
UniProt O14925: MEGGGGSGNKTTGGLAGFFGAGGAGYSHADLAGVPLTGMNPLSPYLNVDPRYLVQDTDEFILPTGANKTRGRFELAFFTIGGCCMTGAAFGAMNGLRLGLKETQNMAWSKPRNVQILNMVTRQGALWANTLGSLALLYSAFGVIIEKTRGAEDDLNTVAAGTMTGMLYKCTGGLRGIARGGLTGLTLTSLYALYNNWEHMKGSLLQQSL
UniProt Q9UDY2: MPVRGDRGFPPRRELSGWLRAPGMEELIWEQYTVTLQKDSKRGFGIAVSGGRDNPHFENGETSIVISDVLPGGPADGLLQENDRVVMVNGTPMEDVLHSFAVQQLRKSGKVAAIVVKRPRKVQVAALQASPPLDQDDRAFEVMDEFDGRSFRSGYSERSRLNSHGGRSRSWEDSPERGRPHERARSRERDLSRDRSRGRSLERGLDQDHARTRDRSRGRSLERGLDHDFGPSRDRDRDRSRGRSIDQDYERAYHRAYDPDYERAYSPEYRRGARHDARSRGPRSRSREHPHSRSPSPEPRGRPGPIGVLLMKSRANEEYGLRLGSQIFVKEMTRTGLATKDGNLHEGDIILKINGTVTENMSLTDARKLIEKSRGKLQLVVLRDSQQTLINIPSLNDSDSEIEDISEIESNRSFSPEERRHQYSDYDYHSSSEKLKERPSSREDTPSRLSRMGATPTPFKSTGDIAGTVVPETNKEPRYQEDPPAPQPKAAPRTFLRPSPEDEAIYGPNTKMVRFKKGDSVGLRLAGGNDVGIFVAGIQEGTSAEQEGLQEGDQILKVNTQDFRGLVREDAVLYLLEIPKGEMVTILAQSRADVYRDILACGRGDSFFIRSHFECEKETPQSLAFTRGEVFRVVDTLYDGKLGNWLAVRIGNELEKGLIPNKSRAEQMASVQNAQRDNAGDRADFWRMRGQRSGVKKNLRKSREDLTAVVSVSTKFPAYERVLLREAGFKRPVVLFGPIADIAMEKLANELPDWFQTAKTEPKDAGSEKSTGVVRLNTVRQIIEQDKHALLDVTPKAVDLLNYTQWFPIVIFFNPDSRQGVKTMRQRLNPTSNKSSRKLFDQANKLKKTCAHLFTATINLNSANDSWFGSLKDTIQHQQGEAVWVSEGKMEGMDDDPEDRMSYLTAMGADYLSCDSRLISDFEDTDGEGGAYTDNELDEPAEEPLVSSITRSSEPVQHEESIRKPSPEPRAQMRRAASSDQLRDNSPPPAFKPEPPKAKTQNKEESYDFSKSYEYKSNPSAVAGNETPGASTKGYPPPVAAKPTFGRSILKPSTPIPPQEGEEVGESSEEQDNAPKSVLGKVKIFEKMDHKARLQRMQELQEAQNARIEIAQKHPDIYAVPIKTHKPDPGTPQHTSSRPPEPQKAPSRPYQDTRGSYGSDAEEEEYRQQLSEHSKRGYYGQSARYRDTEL
UniProt Q8IYQ7: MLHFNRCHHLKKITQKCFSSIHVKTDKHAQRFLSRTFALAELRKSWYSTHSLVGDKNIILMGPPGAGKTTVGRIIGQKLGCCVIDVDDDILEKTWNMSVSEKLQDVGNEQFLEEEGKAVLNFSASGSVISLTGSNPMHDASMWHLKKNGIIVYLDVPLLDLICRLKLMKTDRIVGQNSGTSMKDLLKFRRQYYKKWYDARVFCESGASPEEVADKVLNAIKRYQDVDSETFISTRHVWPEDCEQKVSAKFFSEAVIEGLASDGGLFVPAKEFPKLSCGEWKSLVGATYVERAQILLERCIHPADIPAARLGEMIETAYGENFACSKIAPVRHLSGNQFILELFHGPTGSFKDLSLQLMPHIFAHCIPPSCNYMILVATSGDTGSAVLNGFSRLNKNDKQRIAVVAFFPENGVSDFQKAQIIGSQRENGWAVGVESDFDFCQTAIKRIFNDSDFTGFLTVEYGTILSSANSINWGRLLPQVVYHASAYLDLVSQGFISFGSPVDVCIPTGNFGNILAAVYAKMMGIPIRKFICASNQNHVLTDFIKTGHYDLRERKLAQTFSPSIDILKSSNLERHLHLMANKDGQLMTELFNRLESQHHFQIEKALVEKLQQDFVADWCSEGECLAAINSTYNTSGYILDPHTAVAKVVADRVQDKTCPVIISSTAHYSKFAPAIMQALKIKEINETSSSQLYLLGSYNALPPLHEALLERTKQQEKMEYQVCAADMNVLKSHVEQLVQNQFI
UniProt P55061, whole entry, looked up: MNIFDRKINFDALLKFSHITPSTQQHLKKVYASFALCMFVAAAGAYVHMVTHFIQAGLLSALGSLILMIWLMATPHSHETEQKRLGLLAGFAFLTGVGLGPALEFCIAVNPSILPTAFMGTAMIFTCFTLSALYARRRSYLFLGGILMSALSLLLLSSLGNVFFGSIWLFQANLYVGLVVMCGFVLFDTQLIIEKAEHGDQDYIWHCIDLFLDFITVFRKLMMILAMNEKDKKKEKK
UniProt Q96DC7: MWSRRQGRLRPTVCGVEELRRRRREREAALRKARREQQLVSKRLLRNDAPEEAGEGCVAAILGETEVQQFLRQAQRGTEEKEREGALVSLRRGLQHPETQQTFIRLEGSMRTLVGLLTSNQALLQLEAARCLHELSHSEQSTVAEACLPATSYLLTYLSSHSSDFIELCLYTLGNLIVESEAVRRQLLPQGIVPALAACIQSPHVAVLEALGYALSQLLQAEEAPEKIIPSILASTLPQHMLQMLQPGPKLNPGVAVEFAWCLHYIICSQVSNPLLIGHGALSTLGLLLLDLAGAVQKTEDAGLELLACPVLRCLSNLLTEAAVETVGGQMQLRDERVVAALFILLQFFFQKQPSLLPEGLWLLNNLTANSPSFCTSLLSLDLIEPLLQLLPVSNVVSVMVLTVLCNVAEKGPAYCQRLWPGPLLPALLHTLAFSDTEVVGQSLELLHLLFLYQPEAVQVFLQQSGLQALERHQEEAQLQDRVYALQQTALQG
UniProt Q13769: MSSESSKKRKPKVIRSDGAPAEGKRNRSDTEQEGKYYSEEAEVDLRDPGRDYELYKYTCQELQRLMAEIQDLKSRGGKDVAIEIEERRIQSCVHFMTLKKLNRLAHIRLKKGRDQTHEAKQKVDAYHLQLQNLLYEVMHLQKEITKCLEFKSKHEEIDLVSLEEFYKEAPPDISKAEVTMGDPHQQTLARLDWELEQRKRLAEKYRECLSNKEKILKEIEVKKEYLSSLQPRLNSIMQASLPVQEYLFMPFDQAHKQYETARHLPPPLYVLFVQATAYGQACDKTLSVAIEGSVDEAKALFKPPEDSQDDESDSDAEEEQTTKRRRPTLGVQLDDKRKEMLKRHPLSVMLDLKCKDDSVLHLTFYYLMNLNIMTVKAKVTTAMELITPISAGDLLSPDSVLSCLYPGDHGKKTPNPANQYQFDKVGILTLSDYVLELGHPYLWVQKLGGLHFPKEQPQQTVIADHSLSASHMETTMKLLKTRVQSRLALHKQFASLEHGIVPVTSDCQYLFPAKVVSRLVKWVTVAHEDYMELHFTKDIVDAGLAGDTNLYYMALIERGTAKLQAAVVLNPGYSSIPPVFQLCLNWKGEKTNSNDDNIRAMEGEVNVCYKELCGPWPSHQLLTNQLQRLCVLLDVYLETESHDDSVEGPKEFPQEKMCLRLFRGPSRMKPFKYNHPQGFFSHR
UniProt Q96FV9: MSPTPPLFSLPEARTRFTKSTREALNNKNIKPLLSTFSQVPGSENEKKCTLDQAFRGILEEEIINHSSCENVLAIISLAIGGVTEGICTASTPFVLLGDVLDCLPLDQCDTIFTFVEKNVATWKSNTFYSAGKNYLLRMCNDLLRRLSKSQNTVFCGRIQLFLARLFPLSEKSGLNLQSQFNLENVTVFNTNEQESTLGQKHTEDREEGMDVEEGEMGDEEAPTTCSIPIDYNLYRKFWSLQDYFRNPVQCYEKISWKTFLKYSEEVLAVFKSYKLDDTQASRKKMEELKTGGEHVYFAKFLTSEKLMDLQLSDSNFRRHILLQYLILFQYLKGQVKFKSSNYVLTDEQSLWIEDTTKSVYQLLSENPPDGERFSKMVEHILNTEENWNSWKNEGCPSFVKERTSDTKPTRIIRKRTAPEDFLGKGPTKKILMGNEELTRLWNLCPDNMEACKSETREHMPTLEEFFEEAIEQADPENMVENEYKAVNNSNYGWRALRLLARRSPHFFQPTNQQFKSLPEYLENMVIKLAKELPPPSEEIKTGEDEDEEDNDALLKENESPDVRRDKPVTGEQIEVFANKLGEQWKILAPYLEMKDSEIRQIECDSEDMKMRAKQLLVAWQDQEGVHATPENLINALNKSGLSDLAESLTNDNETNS
UniProt Q96RS0: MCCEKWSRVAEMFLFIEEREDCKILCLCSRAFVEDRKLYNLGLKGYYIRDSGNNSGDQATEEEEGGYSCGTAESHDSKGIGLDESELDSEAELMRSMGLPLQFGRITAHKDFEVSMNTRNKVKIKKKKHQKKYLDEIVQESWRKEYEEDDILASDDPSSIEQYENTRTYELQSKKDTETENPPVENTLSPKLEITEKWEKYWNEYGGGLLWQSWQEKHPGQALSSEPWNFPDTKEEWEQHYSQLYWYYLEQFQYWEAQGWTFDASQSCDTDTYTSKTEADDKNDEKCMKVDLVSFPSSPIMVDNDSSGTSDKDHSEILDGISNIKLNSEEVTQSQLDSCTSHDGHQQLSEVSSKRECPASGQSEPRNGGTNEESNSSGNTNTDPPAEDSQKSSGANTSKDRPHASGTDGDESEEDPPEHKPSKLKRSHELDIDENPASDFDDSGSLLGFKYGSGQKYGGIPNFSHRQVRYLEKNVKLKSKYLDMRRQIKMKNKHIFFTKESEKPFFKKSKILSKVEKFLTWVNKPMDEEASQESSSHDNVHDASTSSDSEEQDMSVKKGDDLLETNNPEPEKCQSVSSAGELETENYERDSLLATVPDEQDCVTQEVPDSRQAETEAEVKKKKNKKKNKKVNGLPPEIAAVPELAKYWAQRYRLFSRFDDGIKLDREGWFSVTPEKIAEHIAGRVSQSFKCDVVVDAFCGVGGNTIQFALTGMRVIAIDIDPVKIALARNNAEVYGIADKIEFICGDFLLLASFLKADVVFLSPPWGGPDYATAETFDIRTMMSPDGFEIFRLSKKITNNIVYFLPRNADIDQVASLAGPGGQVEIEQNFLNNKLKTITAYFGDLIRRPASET
UniProt Q9Y2S6, whole entry, looked up: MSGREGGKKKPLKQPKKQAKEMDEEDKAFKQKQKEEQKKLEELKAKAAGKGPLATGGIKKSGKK
UniProt Q9NX61: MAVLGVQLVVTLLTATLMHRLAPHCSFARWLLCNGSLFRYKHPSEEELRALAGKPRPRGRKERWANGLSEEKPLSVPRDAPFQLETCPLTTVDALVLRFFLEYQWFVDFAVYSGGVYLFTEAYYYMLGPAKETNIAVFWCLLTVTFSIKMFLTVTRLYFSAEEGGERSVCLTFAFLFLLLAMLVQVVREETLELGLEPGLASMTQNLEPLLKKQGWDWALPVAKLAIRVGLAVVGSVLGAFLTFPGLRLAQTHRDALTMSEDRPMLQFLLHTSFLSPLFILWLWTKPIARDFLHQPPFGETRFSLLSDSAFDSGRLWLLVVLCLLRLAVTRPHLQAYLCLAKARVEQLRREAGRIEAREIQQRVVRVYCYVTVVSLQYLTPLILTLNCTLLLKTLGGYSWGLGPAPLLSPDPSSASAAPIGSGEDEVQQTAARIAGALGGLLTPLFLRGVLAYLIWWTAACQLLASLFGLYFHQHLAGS
UniProt O75663: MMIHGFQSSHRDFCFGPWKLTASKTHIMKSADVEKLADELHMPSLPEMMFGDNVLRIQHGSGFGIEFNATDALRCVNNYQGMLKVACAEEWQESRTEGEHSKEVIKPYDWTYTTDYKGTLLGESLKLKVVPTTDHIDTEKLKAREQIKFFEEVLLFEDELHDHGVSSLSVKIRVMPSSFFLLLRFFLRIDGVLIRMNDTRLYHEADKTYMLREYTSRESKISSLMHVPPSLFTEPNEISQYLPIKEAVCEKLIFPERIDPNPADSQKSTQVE
UniProt Q01085: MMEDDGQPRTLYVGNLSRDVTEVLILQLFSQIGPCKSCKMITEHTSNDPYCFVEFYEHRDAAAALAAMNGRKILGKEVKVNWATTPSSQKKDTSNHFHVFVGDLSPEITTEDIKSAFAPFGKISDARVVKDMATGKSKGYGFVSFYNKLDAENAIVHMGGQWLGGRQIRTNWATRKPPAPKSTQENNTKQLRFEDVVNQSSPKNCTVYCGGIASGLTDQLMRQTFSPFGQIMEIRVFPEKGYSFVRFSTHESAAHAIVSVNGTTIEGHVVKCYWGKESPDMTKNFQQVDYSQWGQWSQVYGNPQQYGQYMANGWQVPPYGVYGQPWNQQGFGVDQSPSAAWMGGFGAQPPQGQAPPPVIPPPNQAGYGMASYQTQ

Each target was assayed with COC(=O)[C@H](CCSC)NC(=O)C1=C(C=C(C=C1)NC[C@H](CS)N)C2=CC=CC=C2 (assay: log2 fold change, soluble protein after heating vs DMSO (PISA); higher = thermal stabilisation; K562 lysate, 10 uM; active = over 0.2 and 3.5 SD of the protein, either way, in both replicates (recomputed)).
Outline: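 Thermal stability, expressed as log-two fold change relative to solvent controls, is given from duplicates. Crude K562 extract in PBS pH 7.4 with 1 mM MgCl2, at 1 mg/mL protein, was treated with 10 μM compound for 30 min and heated in aliquots for 3 min across 48°C-58°C. After pooling, adjustment to 0.5% NP-40 at 4°C and centrifugation at 21,000xg for 90 min, supernatant protein was measured by TMTpro 16plex LC-MS/MS with channel sums equalised.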

log2 fold change, inactive:
TICAM2 isoform 2 (UniProt Q86XR7) -0.042, THUMPD2 (UniProt Q9BTF0) 0.006, TMCO1 (UniProt Q9UM00) -0.067, TGOLN2 isoform 7 (UniProt O43493) -0.031, TMBIM1 (UniProt Q969X1) -0.075, TMEM120A (UniProt Q9BXJ8) 0.296, TIMMDC1 (UniProt Q9NPL8) -0.01, TIMM23 (UniProt O14925) 0.032, TJP2 isoform 7 (UniProt Q9UDY2) 0.058, TMEM185B (UniProt Q9H7F4) -0.058, TM9SF4 (UniProt Q92544) -0.065, TMEM168 (UniProt Q9H0V1) -0.224, TMEM164 (UniProt Q5U3C3) 0.185, THYN1 (UniProt Q9P016) -0.014, THNSL1 (UniProt Q8IYQ7) -0.032, TMBIM6 isoform 2 (UniProt P55061) -0.028, THOP1 (UniProt P52888) 0.02, TMCO6 isoform 2 (UniProt Q96DC7) -0.058, TMEM109 (UniProt Q9BVC6) -0.083, THOC5 (UniProt Q13769) 0.062, THOC1 (UniProt Q96FV9) 0.07, TLE4 isoform 3 (UniProt Q04727) -0.055, TGS1 (UniProt Q96RS0) -0.045, TIMM29 (UniProt Q9BSF4) 0.059, TLN2 (UniProt Q9Y4G6) 0.026, TMEM126A (UniProt Q9H061) 0.14, TMED5 (UniProt Q9Y3A6) -0.019, TMA7 (UniProt Q9Y2S6) 0.031, TIMM22 (UniProt Q9Y584) -0.019, TMEM161A (UniProt Q9NX61) -0.176, TIMM44 (UniProt O43615) 0.08, THEM4 (UniProt Q5T1C6) -0.012, TMED10 (UniProt P49755) -0.015, TMA16 (UniProt Q96EY4) 0.036, TIPRL (UniProt O75663) -0.115, TIMM17A (UniProt Q99595) 0.022, TIMM17B (UniProt O60830) -0.015, TIMM50 isoform 2 (UniProt Q3ZCQ8) -0.028, TMED8 (UniProt Q6PL24) 0.03, TIAL1 isoform 2 (UniProt Q01085) -0.053
